Experimental data reported in PubChem BioAssay AID504467 (National Center for Advancing Translational Sciences (NCATS), 2011).
About 7,700 (2.3%) of roughly 330,000 compounds were called active. This list was built around the results that the source calls inconclusive (neither active nor inactive); the mix of calls is not that of the screen. The call rests on the fitted dose curve; in most records, active means well fitted inhibition curve with a large enough effect; inconclusive means small, poorly fitted or top-dose-only effect, or effect the other way; inactive means flat fitted curve, though single readings scatter. Potencies beside an inconclusive call are fits to weak or partial responses and may not hold up.

assay: qHTS screen for small molecules that inhibit ELG1-dependent DNA repair in human embryonic kidney (HEK293T) cells expressing luciferase-tagged ELG1; conditions: HEK293T ELG1-luciferase reporter, luminescence, 16 h, DNA damage induced by 5-fluorouridine; activity change, negative = inhibition: at 46.1 µM (top of the series); further: nearly all actives have a fitted effect of over 55% in size
Outline: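 Cells (2,000 per well) received 5-fluorouridine plus test compound or DMSO and were incubated 16 hr at 37 °C, 5% CO2. Luciferase activity was read by luminescence 30 min after ONE-Glo addition; signal suppression marked inhibition of damage-induced ELG1 function.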
On the % scale 0 is the no-effect control and ±100 the full control effect; potency means the concentration at half of the fitted maximal effect.

With `O=C(CSc1nc2ccccc2[nH]1)c1ccccc1F` as the compound, how does the Potency read?
Its Potency is inconclusive: 11.6 µM [activator, partial curve].

With `CCn1nnnc1SCC(=O)c1ccc(C)cc1` as the compound, how does the Potency read?
The Potency was inconclusive: 20.6 µM [activator, partial curve].

For `C=CCn1c(CC#N)nnc1N1CCOCC1`, which Potency is on record?
Its Potency is inconclusive: 32.6 µM [activator, partial curve, poor fit].

With `O=C(/C=C/c1ccc(S(=O)(=O)NCc2ccco2)cc1)N1CCN(c2ccccc2)CC1` as the compound, how does the Potency read?
Its Potency is inconclusive: 23.1 µM [inhibitor, single point].

For `COc1ccc(-c2cc(=O)c3c(O)cc(O)cc3o2)cc1`, which Potency is on record?
Its Potency is inconclusive: 5.62 µM [activator, single point].

For `COc1cc(NC(=O)CSc2nnc3ccccn23)cc(OC)c1`, which Potency is on record?
Its Potency is inconclusive: 35.5 µM [activator, partial curve, poor fit].

For `O=[N+]([O-])c1ccc(-c2cn3c(n2)CCC3)cc1`, which Potency is on record?
Its Potency is inconclusive: 18.3 µM [activator, partial curve].

For `COc1ccc(NC(=O)NNC(=O)C(C)Oc2ccc(C(C)C)cc2)c(OC)c1` (centres undefined), which Potency is on record?
Its Potency is inconclusive: 25.9 µM [inhibitor, partial curve].

Which “activity change, negative = inhibition” value does the source give for `O=C(NNC(=O)c1ccco1)c1ccc(NS(=O)(=O)c2cccs2)cc1` here?
The value was inactive: -10.9%.

With `COc1cc(NC2c3ccccc3C(=O)N2Cc2ccccc2)cc(OC)c1OC` (centres undefined) as the compound, how does the “activity change, negative = inhibition” value read?
The value was inactive: -7.41%.

Which Potency does the source give for `CCOc1ccc2nc(/N=C/c3nc(-c4ccc(Br)cc4)oc3O)sc2c1` here?
The Potency was inconclusive: 8.2 µM [activator, partial curve].

With `O=C(CCC(=O)OCC(=O)c1ccc(C(F)(F)F)cc1)OCC(=O)c1ccc(C(F)(F)F)cc1` as the compound, how does the “activity change, negative = inhibition” value read?
Its value is inactive: 5.63%.

For `CCCCCc1cc(=O)oc2c(C(CCN3CCCC(C)C3)c3ccc4c(c3)OCO4)c(OC)cc(OC)c12` (centres undefined), which Potency is on record?
The Potency was inconclusive: 29.1 µM [inhibitor, single point].

Which Potency does the source give for `CCOC(=O)N1CCN(C(=O)CSc2nc3c([nH]c4ccccc43)c(=O)n2CC)CC1` here?
The Potency was inconclusive: 5.17 µM [inhibitor, partial curve, poor fit].

With `Cc1cccc2c3c([nH]c12)CCNC3` as the compound, how does the Potency read?
Its Potency is inconclusive: 1.26 µM [activator, single point].

With `CCCCOC(=O)CCc1nc2ccccc2[nH]c1=O` as the compound, how does the Potency read?
The Potency was active: 29.1 µM.

With `COc1ccc(Nc2sc(C(=O)c3ccc(Cl)cc3)c(N)c2C(=O)Nc2ccccc2OC)cc1` as the compound, how does the Potency read?
Its Potency is inconclusive: 29.1 µM [inhibitor, single point].

Which “activity change, negative = inhibition” value does the source give for `CCOC(=O)c1ccc(Oc2cc(C)nc(SC)n2)cc1` here?
Its value is inactive: -0.179%.

With `O=S(=O)(c1cccs1)N1CCN(Cc2nc3ccccc3s2)CC1` as the compound, how does the Potency read?
Its Potency is inconclusive: 32.6 µM [inhibitor, partial curve, poor fit].

For `O=C(Nc1ccc(S(=O)(=O)N2CCOCC2)cc1)c1cccc([N+](=O)[O-])c1`, which Potency is on record?
Its Potency is inconclusive: 29.1 µM [inhibitor, single point].

For `O=C(NCCC1CCCCN1S(=O)(=O)c1cccs1)C(=O)NCc1ccccc1` (centres undefined), which Potency is on record?
Its Potency is inconclusive: 18.3 µM [inhibitor, partial curve, poor fit].

For `Fc1cc(F)c2nc(N3CCCCC3)sc2c1`, which Potency is on record?
The Potency was inconclusive: 20.6 µM [activator, partial curve, poor fit].

With `O=C(CCCCCn1c(=O)[nH]c2ccccc2c1=O)N1CCN(Cc2ccc3c(c2)OCO3)CC1` as the compound, how does the Potency read?
Its Potency is active: 18.4 µM.

With `Cc1[nH]c2ccccc2c1C(=O)/C=C/c1ccccc1` as the compound, how does the Potency read?
Its Potency is inconclusive: 2.06 µM [activator, partial curve].

With `Cc1nnc(NC(=O)CSc2nnc3scc(-c4ccc(C)c(C)c4)n23)s1` as the compound, how does the “activity change, negative = inhibition” value read?
Its value is inactive: 0.174%.

Which Potency does the source give for `C/C(=N/Nc1nc(-c2ccccc2F)nc2ccccc12)c1ccccc1O` here?
The Potency was inconclusive: 14.6 µM [inhibitor, partial curve, poor fit].

For `CCn1cc(C(=O)Nc2cccc(NC(C)=O)c2)c2cc(OC)c(OC)cc2c1=O`, which Potency is on record?
Its Potency is inconclusive: 9.2 µM [inhibitor, single point].

Which Potency does the source give for `CCc1nnc(NC(=O)Nc2ccc(OC)cc2)s1` here?
Its Potency is inconclusive: 23.1 µM [activator, single point].

For `CC1(C)Cc2c(c(N3CCOCC3)nc3sc4c(NCc5ccco5)nnnc4c23)CS1`, which Potency is on record?
Its Potency is active: 4.11 µM.

With `S=c1nc2c(n[nH]1)c1ccccc1n2CCc1ccccc1` as the compound, how does the “activity change, negative = inhibition” value read?
Its value is inactive: 1%.

For `Cc1cccc(C)c1NC1=NC2(CCCCC2)N=C(N)N1`, which “activity change, negative = inhibition” value is on record?
The value was inactive: 18.5%.

Which Potency does the source give for `CC(=O)c1ccc(N2C(=O)C3C(C2=O)C(C(=O)c2ccc(Cl)cc2)N2CCCC32)cc1` (centres undefined) here?
The Potency was inconclusive: 20.6 µM [activator, partial curve].

For `Cc1ccc[n+](CC(=O)Nc2ccc(C)c(C)c2)c1`, which “activity change, negative = inhibition” value is on record?
Its value is inactive: 1.24%.

Which Potency does the source give for `CCOC(=O)c1sc2nc(C)nc(Nc3ccc(OC)c(OC)c3)c2c1C` here?
The Potency was inconclusive: 4.11 µM [inhibitor, single point].

With `CCCCCCCc1ccc(C2NC(=S)NC3=C2C(=O)c2ccccc23)cc1` (centres undefined) as the compound, how does the “activity change, negative = inhibition” value read?
Its value is inactive: -1.19%.

For `O=C(Nc1ccc(Br)cc1)c1cc([N+](=O)[O-])cc([N+](=O)[O-])c1`, which Potency is on record?
The Potency was inconclusive: 18.3 µM [inhibitor, single point].

For `C/C(CC(=O)N1CCN(C=O)CC1)=N\NC(=O)c1cc2ccccc2cc1O`, which “activity change, negative = inhibition” value is on record?
Its value is inactive: 0.834%.

For `CCOc1ccc(C(=O)NC(Cc2ccccc2)C(=O)OC)cc1` (centres undefined), which Potency is on record?
The Potency was inconclusive: 23.1 µM [activator, partial curve].

Which Potency does the source give for `CC(=O)N1CC23C=CC(CC2CC12CCCCCC2)O3` (centres undefined) here?
Its Potency is inconclusive: 18.3 µM [inhibitor, single point].

Which “activity change, negative = inhibition” value does the source give for `CCCC(CCC)C(=O)Nc1cccc(-c2cn3c(n2)SCC3)c1` here?
Its value is inactive: -0.552%.

Which Potency does the source give for `Cc1cccc(NS(=O)(=O)c2cccc(C(=O)N3CCN(C/C=C/c4ccccc4)CC3)c2)c1` here?
The Potency was inconclusive: 29.1 µM [inhibitor, partial curve, poor fit].

With `COc1cccc(NC(=S)NCc2cccnc2)c1` as the compound, how does the “activity change, negative = inhibition” value read?
The value was inactive: 0.846%.

With `O=C(/C=C/c1cccc(Cl)c1)NCCc1ccccc1` as the compound, how does the Potency read?
Its Potency is inconclusive: 20.6 µM [activator, partial curve].

With `Cc1ccc(C(=O)NCCc2nnc(SCC(=O)Nc3nc(-c4ccccc4)cs3)n2C)cc1` as the compound, how does the Potency read?
The Potency was inconclusive: 7.31 µM [activator, partial curve].
